Taken from: PubChem BioAssay AID720505 (Drosophila RNAi Screening Center, 2013)
The screen tested about 20,000 reagents; this is an unselected part of those that have a named target and a result. Of all reagents, about 2,100 (10%) got an active call. 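Raw plate signals without normalisation; calls rest on control-based scores that were not deposited; replicate 2 separates called from uncalled poorly.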 Unmarked entries are inactive. No sequences are given here. Not stated in the record: the amount of reagent, the time to read-out.

Screen: 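Knock-downs that reduce calcium influx once internal stores are emptied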 (primary screen)
Cells: Drosophila S2R+ cells
Reagents: long dsRNA against Drosophila genes
Treatment: thapsigargin (2 µM) in calcium-free buffer to empty internal stores, then 2 mM calcium added back
Detection: 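Stores emptied by 2 µM thapsigargin without calcium, then 2 mM calcium re-added; fluo-4 fluorescence followed by FLIPR in 384-well plates, per-well averaged endpoint, raw; two screen passes, some wells retested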
Scale: calcium signal: higher = more calcium entry after store depletion
Hit rule: 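Knock-downs counted as hits when calcium entry dropped relative to STIM1 positive and Rho1 negative controls present on each plate; roughly 1500 genes called, with reductions of differing size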
Meaning of the calls: active = called as lowering calcium entry; inactive = not called

target gene	DRSC id	calcium signal, replicate 1	calcium signal, replicate 2
CG14431	DRSC17925	83.9 (active)	220
CG14431	DRSC17926	186	135
CG10011	DRSC14174	111	145
CG32037	DRSC10363	55.1 (active)	94.5
CG12869	DRSC06208	97	125
Dhc62B	DRSC08655	87.7	68
Claspin	DRSC08308	121	105
Acsx1L	DRSC16014	134	138
CG9498	DRSC03235	66.5 (active)	177
CG10376	DRSC02049	110	86.7
Osi14	DRSC12368	120	82
Marf	DRSC18329	95.8	113
CG5262	DRSC11773	108	116
mkg-p	DRSC10777	109	160
CG6908	DRSC16131	165	118
REG	DRSC20273	161	84.7
CG18765	DRSC15392	167	96.1
Gas41	DRSC03156	85.9	117
c12.1	DRSC18750	84.4	88
CG5225	DRSC15742	113	297
Cyp4g15	DRSC20240	71.9	96
Spn28Dc	DRSC03029	104	131

Laid out differently: entries from further up.
{"target gene": "Acsx1L", "DRSC id": "DRSC16014", "calcium signal, replicate 1": 134, "calcium signal, replicate 2": 138}
{"target gene": "CG9498", "DRSC id": "DRSC03235", "calcium signal, replicate 1": "66.5 (active)", "calcium signal, replicate 2": 177}
{"target gene": "CG10376", "DRSC id": "DRSC02049", "calcium signal, replicate 1": 110, "calcium signal, replicate 2": 86.7}
{"target gene": "Osi14", "DRSC id": "DRSC12368", "calcium signal, replicate 1": 120, "calcium signal, replicate 2": 82}

Continued:
target gene	DRSC id	calcium signal, replicate 1	calcium signal, replicate 2
Tsp42El	DRSC06186	154	98.7
Ser7	DRSC18201	113	93.4
COX7AL2	DRSC00099	86.5 (active)	93.5
CG6738	DRSC16104	175	124
Bin1	DRSC16843	156	192
Dg	DRSC06718	113	145
CG14647	DRSC12233	135	76.5
CG14647	DRSC22497	95	168
mRpL48	DRSC00506	178	124
d-cup	DRSC14846	55.8 (active)	204
viaf	DRSC10326	156	97.5
Argp	DRSC16510	150	196
CG31663	DRSC00078	68.4	132
CG31663	DRSC00389	144	272
CG31663	DRSC00390	178	185
CG31663	DRSC00393	129	105
SMC2	DRSC07544	131	145
OS9	DRSC02700	132	118
Rh3	DRSC16822	148	187
eRF3	DRSC03322	123	149
CR1075	DRSC12144	92.2	167
CG8292	DRSC03082	169	157
CG18659	DRSC06784	143	130
CG17784	DRSC15268	263	152
Sac1	DRSC08622	154	111
CG13983	DRSC02315	195	101
CG12929	DRSC06242	111	145
CG1986	DRSC18197	102	84.5
CG14744	DRSC06480	110	135
CG42284	DRSC22094	103	209
CG42284	DRSC22342	97.8	217
bai	DRSC14388	174	125
Uros1	DRSC18191	184	173
Cog8	DRSC02961	106	137
